Test results published in ChEMBL document CHEMBL5576120, “Discovery and In Vivo Efficacy of AZ-PRMT5i-1, a Novel PRMT5 Inhibitor with High MTA Cooperativity” (J Med Chem, 2024).
In brackets after ≈: the same amount, converted by molar mass.

Assays:
[1] = physchem; settings: buffer, pH 7.4
[2] = physchem; settings: buffer, pH 7.4; remark: listed apart in the source

Compound | solubility at 24 h [1] [µM] | logD [2]
N=C(N)Nc1ncc(CN2C(=O)c3ccccc3C2C(=O)NCc2ccc(F)cc2)s1 (centres undefined) | 317 (≈ 139 µg/mL) | 2.1
Nc1ccc2[nH]c(CN3C(=O)c4cc(F)ccc4[C@]34CCN(Cc3ccc(F)cc3)C4=O)nc2n1 | 413 (≈ 196 µg/mL) | 2
